{
  "source": "patent US20240050440A1",
  "about": "“THERAPEUTIC TARGETS AND AGENTS FOR THE TREATMENT OF TRIOSEPHOSPHATE ISOMERASE (TPI) DEFICIENCY” (University of Pittsburgh- Of The Commonwealth System of …, priority 2020, published 2024)",
  "system": "TPI^E105D-GFP fusion protein",
  "assay": "HEK293 TPI^E105D-GFP high content assay (GFP intensity per cell)",
  "format": "cell-based, human",
  "conditions": "NIH Clinical Collection, 10 μM and 1 μM, 24 hours and 48 hours",
  "protocol": "HEK293 cells expressing a mutant (E105D) TPI-GFP fusion protein were created using the Flp-In System (Invitrogen, Catalog #K6010-01 and K6010-02) following the manufacturer's protocol. Briefly, a host cell line expressing the transfected Flp-In target site vector, pFRT/lacZeo, was obtained following zeocin resistance selection. TPI^E105D-GFP fusion construct was cloned into the pcDNA 5/FRT expression vector. Co-transfection of 0.1 μg of the pcDNA 5/FRT construct (390 ng/μL) and 0.9 μg of the Flp recombinase expression vector (pOG44, 127 ng/μL) into the Flp-In host cell line was performed with 3.75 μL Lipofectamine 2000 reagent (Invitrogen). A hygromycin dose response was performed to determine the minimum concentration of hygromycin B required to kill untransfected host cells. […] To document subcellular localization of mutant GFP-tagged TPI, nuclei were stained with Hoechst 33342 and imaged on an ImageXpress Ultra confocal high content reader in the UV and GFP channel, respectively. […]\nAssay ready daughter plates of the NIH Clinical Collection containing 2 μL of a 1 mM DMSO stock were reconstituted in DMEM (60 μL) to yield a 30 μM intermediate treatment concentration. […] After 24 hours, plates were imaged live in the GFP channel and returned to the incubator; after 48 hours cells were stained with PI, imaged live in the GFP and PI channels, and analyzed as described above. […]",
  "note": "For at least one compound, name, drawing or mass did not settle the structure.",
  "data": [
    {"smiles": "COCc1c(C(C)C)nc(C(C)C)c(/C=C/[C@@H](O)C[C@@H](O)CC(=O)O)c1-c1ccc(F)cc1", "note": "[cerivastatin]", "values": [
      {"measurement": "repeat of hit activity in every condition", "result": "repeated in every condition"}
    ]}
  ]
}
